Measurements from patent US20230346796A1 (priority 2010, published 2023).
Not every entry of the source has a single result; some have several. They are shown here; other results are not. An entry can have further records. Values that stand side by side do not match, cause unknown; some may be repeats, others may stem from another dose, organism or construct than stated.

Tested on: healthy volunteers and patients undergoing a colonoscopy
Experiment: CNS 7056-fentanyl interaction MOAA/S pharmacodynamic analysis
Conditions: CNS7056FEN01AS

COC(=O)CC[C@@H]1N=C(c2ccccn2)c2cc(Br)ccc2-n2c(C)cnc21 [CNS 7056, 3-[(4S)-8-bromo-1-methyl-6-(2-pyridinyl)-4H-imidazo[1,2-a][1,4]benzodiazepin-4-yl] propionic methyl ester]
EC50, eta IIV (RSE%): 36.33 (16.0) % and 36.17 (16.0) %
Hill Coefficient, eta IIV (RSE%): 55.55 (24.3) % and 55.67 (24.3) %
